Assays:
[1] = 5 mg subconjunctival injection, 1, 3 and 7 days
[2] = in vivo; details: rabbit, vitreous

In the case of `O=C(O)c1cn(C2CC2)c2cc(N3CCNCC3)c(F)cc2c1=O` [ciprofloxacin], the aqueous ciprofloxacin concentration [1] is reported as less than 0.2 µg/mL, the vitreous ciprofloxacin concentration [1] is reported as less than 0.2 µg/mL and the concentration at 336 h [2] is reported as greater than 1000 ng/mL.

— US5773019A, “Implantable controlled release device to deliver drugs directly to an internal portion of the body” (The University of Kentucky Research Foundation, priority 1995, dated 1998)
